Data as given in patent US20260053716A1 (HYSENSBIO CO., LTD, priority 2022, published 2026).
Ends that are not written are not given here.

Assay: general procedure: Fmoc solid-phase peptide synthesis
Details: whole synthesis, high-performance liquid chromatography

KYKQKRRSYK
purity (crude or final not stated): 97% or higher
